Measured values taken from doi:10.1101/2022.05.07.491051 (bioRxiv, 2022).
No constants are given. Whether binding was seen depends on the method and setting.

Target: BcThsA^SIR2 (residues 1-284) (Bacilus cereus MSX-D12) (UniProt J8G6Z1)
Assay: SEC-MALS

binding: no binding
B1: BcThsA^SIR2 (residues 1-284) (domain or fragment, UniProt J8G6Z1 1-284)
chain: MKMNPIVELFIKDFTKEVMEENAAIFAGAGLSMSVGYVSWAKLLEPIAQEIGLDVNKENDLVSLAQYYCNENQGNRGRINQIILDEFSRKVDLTENHKILARLPIHTYWTTNYDRLIEKALEEENKIADVKYTVKQLATTKVKRDAVVYKMHGDVEHPSEAVLIKDDYEKYSIKMDPYIKALSGDLVSKTFLFVGFSFTDPNLDYILSRVRSAYERDQRRHYCLIKKEERRPDELEADFEYRVRKQELFISDLSRFNIKTIVLNNYNEITEILQRIENNIKTKT
